According to patent US4431742A, “Radioreceptor assay for benzodiazepines in saliva” (The United States of America as represented by the …, priority 1981, dated 1984):

Test system: benzodiazepine receptor (fresh rat frontal cortex)
Experiment: recovery of benzodiazepines pre-incubated with saliva, measured by benzodiazepine radioreceptor assay
Type: binding
Settings: 100 nM diazepam, 10 mins at 37° C. with control saliva

CN1C(=O)CN=C(c2ccccc2)c2cc(Cl)ccc21 [diazepam]
time course and extent of reduction of binding, pre-incubated with saliva vs dissolved in buffer: the same
